Measured values published in PubChem BioAssay AID344 (DTP/NCI, 2004).
The list shows only some results of the screen, not a fair sample: it is rich in T/C values a quarter to a half above the control, in often repeated tests (any T/C) and in doses without a T/C. Other doses and runs of a compound stand elsewhere. T/C is the treated group as % of the vehicle group. Some entries give survivors of the animals treated and no T/C: the source holds a T/C of zero for them, seemingly a mark for toxic or unscored doses. Some survivor counts are full or nearly so, which does not show that the dose was tolerated: survival well below the control is almost never listed, so the zero probably covers shortened survival too. Counts of survivors are from the toxicity check (mostly the fifth day) where no day follows; animals may have died later. Schedule codes are those of the source, read here as Q, the interval in days (D) or hours (H), X, the number of doses. Brackets with × count equal records among those shown. For survival time, this PubChem deposit counts one and a half times the control or more as active, and values a quarter to a half above the control carry no call in these data; other NCI protocols may use other cut-offs. Some T/C values carry the count of animals alive at the toxicity check (mostly the fifth day); where none is given, no animal had died by that day. Some doses were run more than once; the results are listed from low to high. Some schedules carry Z or #; the key to these is not given.

Test system: mice, LPC-1 plasma cell tumor ip, median survival T/C
Assay: NCI In Vivo Anticancer Drug Screen. Data for tumor model Lieberman Plasma Cell No. 1 (LPC-1) (intraperitoneal) in unknown mice
Details: T/C endpoint: median survival time, vehicle: saline, higher T/C = longer survival
Description: The antitumor activity of compounds was measured in mice bearing transplantable tumors. Survival or tumor size were measured and the results are expressed as the measurement made in the treated group (T) divided by the measurement made in the vehicle treated control group (C). The tumor model used in this assay is Lieberman Plasma Cell No. 1 (LPC-1) (intraperitoneal) in unknown mice

[1] = dose: 60.0 mg/kg/injection, schedule: Q01DX028 (sc)
[2] = dose: 65.0 mg/kg/injection, schedule: Q01DX028 (sc)

O=P1(N(CCCl)CCCl)NCCCO1 (stereo not drawn)
T/C (dose: 6.25 mg/kg/injection, schedule: Q01DX028 (sc)): 132 % of control
T/C (dose: 7.8 mg/kg/injection, schedule: Q01DX010 (sc)): 140 % of control
T/C (dose: 8.0 mg/kg/injection, schedule: Q01DX028 (sc)): 129 % of control
T/C (dose: 10.0 mg/kg/injection, schedule: Q01DX028 (sc), evaluated on day 72): 182 % of control
T/C (dose: 10.0 mg/kg/injection, schedule: Q01DX028 (sc), evaluated on day 90): 183 (2×) and 211 % of control
T/C (dose: 10.0 mg/kg/injection, schedule: Q01DX028 (sc), run until all animals had died): 100, 143, 177, 184, 197 (2×), 200, 202 [7 of 8 alive], 212 % of control [7 of 8 alive]
T/C (dose: 12.5 mg/kg/injection, schedule: Q01DX015 (sc)): 144 % of control [7 of 8 alive]
T/C (dose: 12.5 mg/kg/injection, schedule: Q01DX028 (sc), evaluated on day 48): 184 and 192 % of control
T/C (dose: 12.5 mg/kg/injection, schedule: Q01DX028 (sc), evaluated on day 53): 183 % of control [7 of 8 alive]
T/C (dose: 12.5 mg/kg/injection, schedule: Q01DX028 (sc), evaluated on day 70): 196 % of control
T/C (dose: 12.5 mg/kg/injection, schedule: Q01DX028 (sc), evaluated on day 87): 146 % of control [7 of 8 alive]
T/C (dose: 12.5 mg/kg/injection, schedule: Q01DX028 (sc), evaluated on day 90): 153, 171 [7 of 10 alive], 173 % of control
T/C (dose: 12.5 mg/kg/injection, schedule: Q01DX028 (sc), run until all animals had died): 145, 168 [9 of 10 alive], 178, 231 % of control
survivor count (dose: 14.0 mg/kg/injection, schedule: Q01DX009 (sc)): 5 of 8
T/C (dose: 14.0 mg/kg/injection, schedule: Q01DX028 (sc)): 100 [9 of 12 alive], 102 [8 of 10 alive], 105 [8 of 10 alive], 157 [9 of 12 alive], 162, 171, 202, 210 (2×), 212, 213 (2×), 216 [7 of 8 alive], 222 [7 of 8 alive], 223, 227 [9 of 10 alive], 241, 242, 325 % of control
T/C (dose: 15.0 mg/kg/injection, schedule: Q01DX028 (sc)): 94 [7 of 8 alive], 118 [7 of 8 alive], 200 [7 of 8 alive], 226 % of control
T/C (dose: 20.0 mg/kg/injection, schedule: Q01DX028 (sc), evaluated on day 72): 212 % of control
T/C (dose: 20.0 mg/kg/injection, schedule: Q01DX028 (sc), evaluated on day 90): 202, 208, 252 % of control
T/C (dose: 20.0 mg/kg/injection, schedule: Q01DX028 (sc), run until all animals had died): 136, 143, 144 [9 of 10 alive], 177, 202, 205, 217, 222, 222 % of control [9 of 10 alive]
T/C (dose: 23.0 mg/kg/injection, schedule: Q01DX009 (sc)): 145 % of control [7 of 8 alive]
T/C (dose: 23.0 mg/kg/injection, schedule: Q01DX028 (sc)): 114 [8 of 12 alive], 125, 128 [7 of 8 alive], 136 [7 of 8 alive], 140 (2×), 145 [11 of 12 alive], 158, 162 [8 of 10 alive], 191, 202, 207, 213, 222, 227, 232, 256, 266 [9 of 10 alive], 309 % of control
survivor count (dose: 25.0 mg/kg/injection, schedule: Q01DX009 (ip)): 6 of 6
T/C (dose: 25.0 mg/kg/injection, schedule: Q01DX028 (sc), evaluated on day 48): 184 and 192 % of control
T/C (dose: 25.0 mg/kg/injection, schedule: Q01DX028 (sc), evaluated on day 53): 169 % of control [7 of 8 alive]
T/C (dose: 25.0 mg/kg/injection, schedule: Q01DX028 (sc), evaluated on day 70): 288 % of control
T/C (dose: 25.0 mg/kg/injection, schedule: Q01DX028 (sc), evaluated on day 87): 166 % of control
T/C (dose: 25.0 mg/kg/injection, schedule: Q01DX028 (sc), evaluated on day 90): 114, 171, 221 % of control [9 of 10 alive]
T/C (dose: 25.0 mg/kg/injection, schedule: Q01DX028 (sc), run until all animals had died): 152, 207, 215, 281 % of control
T/C (dose: 30.0 mg/kg/injection, schedule: Q01DX028 (sc)): 107 [6 of 8 alive], 126 [6 of 8 alive], 152 [7 of 8 alive], 202 % of control
T/C (dose: 39.0 mg/kg/injection, schedule: Q01DX028 (sc)): 105 [9 of 10 alive], 111 [6 of 8 alive], 112, 124 [6 of 8 alive], 131 [8 of 12 alive], 147 [9 of 10 alive], 155, 172, 173, 179, 192, 214 % of control
T/C (dose: 40.0 mg/kg/injection, schedule: Q01DX028 (sc), evaluated on day 72): 189 % of control
T/C (dose: 40.0 mg/kg/injection, schedule: Q01DX028 (sc), evaluated on day 90): 200, 213 [7 of 8 alive], 250 % of control
T/C (dose: 40.0 mg/kg/injection, schedule: Q01DX028 (sc), run until all animals had died): 94, 102, 130, 134 [9 of 10 alive], 150, 158 [7 of 8 alive], 166, 177, 187 % of control
T/C (dose: 40.0 mg/kg/injection, schedule: Q01DX Z (sc)): 138 % of control [9 of 10 alive]
survivor count (dose: 50.0 mg/kg/injection, schedule: Q01DX009 (ip)): 6 of 6
T/C (dose: 50.0 mg/kg/injection, schedule: Q01DX028 (sc), evaluated on day 48): 188 % of control
T/C (dose: 50.0 mg/kg/injection, schedule: Q01DX028 (sc), evaluated on day 53): 175 % of control
T/C (dose: 50.0 mg/kg/injection, schedule: Q01DX028 (sc), evaluated on day 70): 180 % of control
T/C (dose: 50.0 mg/kg/injection, schedule: Q01DX028 (sc), evaluated on day 87): 140 % of control
T/C (dose: 50.0 mg/kg/injection, schedule: Q01DX028 (sc), evaluated on day 90): 115, 135, 240 % of control
T/C (dose: 50.0 mg/kg/injection, schedule: Q01DX028 (sc), run until all animals had died): 186 and 186 % of control [7 of 8 alive]
T/C [1]: 97 [7 of 8 alive], 127 [7 of 8 alive], 157 % of control
survivor count [1]: 3 of 8
T/C (dose: 62.5 mg/kg/injection, schedule: Q01DX010 (sc)): 131 % of control
T/C (dose: 64.0 mg/kg/injection, schedule: Q01DX028 (sc)): 129 % of control
T/C [2]: 111, 128, 139 [11 of 12 alive], 140, 142, 152 % of control
survivor count [2]: 6 of 12
survivor count (dose: 100.0 mg/kg/injection, schedule: Q01DX009 (ip)): 6 of 6 (2×)
T/C (dose: 108.0 mg/kg/injection, schedule: Q01DX028 (sc)): 95, 95 [8 of 12 alive], 97, 114, 128 % of control
survivor count (dose: 108.0 mg/kg/injection, schedule: Q07DX004 (sc)): 7 of 12
survivor count (dose: 180.0 mg/kg/injection, schedule: Q07DX004 (sc)): 7 of 12
survivor count (dose: 300.0 mg/kg/injection, schedule: Q07DX004 (sc)): 7 of 12
survivor count (dose: 500.0 mg/kg/injection, schedule: Q07DX004 (sc)): 4 of 12
